Data as given in PubChem BioAssay AID652272 (Drosophila RNAi Screening Center, 2013).
Purpose: 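Genome-wide knock-down search for components of Hedgehog signalling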 (primary screen). Cells: Drosophila clone 8 (Cl8) cells. Reagents: long dsRNA against Drosophila genes. Detection: 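Plate reader light from a firefly reporter under a ptc promoter fragment that responds to Hedgehog, with Renilla light as transfection reference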. Reading the numbers: firefly Hh reporter signal: higher = more ptc reporter light; Renilla reference signal: higher = more Renilla control light. Rule for the call: 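Hit when the z-score averaged over two replicates is under -2 or over +3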. Calls: active = hit: reporter lowered or raised; inactive = not a hit.
In all, the deposit lists about 21,000 reagents; shown is an unselected part of those that have a named target and a result. In the full data, 503 (2.4%) were called active. 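Raw plate light values, not normalised; calls rest on replicate z-scores that were not deposited; hits include reporter decreases as well as increases.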 No sequences are given here. Not stated in the record: the amount of reagent, the time to read-out.

Which result is listed for tub [DRSC12389]?
firefly Hh reporter signal, replicate 1: 1.65e5; firefly Hh reporter signal, replicate 2: 6.29e5; firefly Hh reporter signal, replicate 3: 97922; Renilla reference signal, replicate 1: 6028; Renilla reference signal, replicate 2: 34996; activity call: inactive

With velo [DRSC08841], what was measured?
firefly Hh reporter signal, replicate 1: 58546; firefly Hh reporter signal, replicate 2: 88227; Renilla reference signal, replicate 1: 1463; Renilla reference signal, replicate 2: 4333; activity call: inactive

With velo [DRSC09698], how do the results read?
firefly Hh reporter signal, replicate 1: 60211; firefly Hh reporter signal, replicate 2: 86983; Renilla reference signal, replicate 1: 3024; Renilla reference signal, replicate 2: 3464; activity call: inactive

With pygo [DRSC14322], how do the results read?
firefly Hh reporter signal, replicate 1: 1.40e5; firefly Hh reporter signal, replicate 2: 86611; Renilla reference signal, replicate 1: 2906; Renilla reference signal, replicate 2: 3015; activity call: inactive

With AttB [DRSC06734], what does the deposit list?
firefly Hh reporter signal, replicate 1: 57387; firefly Hh reporter signal, replicate 2: 69692; Renilla reference signal, replicate 1: 1457; Renilla reference signal, replicate 2: 4164; activity call: inactive

With lncRNA:CR42735 (retired record) [DRSC00921], how do the results read?
firefly Hh reporter signal, replicate 1: 5.60e5; firefly Hh reporter signal, replicate 2: 1.64e5; Renilla reference signal, replicate 1: 27691; Renilla reference signal, replicate 2: 6676; activity call: inactive

For nw [DRSC06451], how do the results read?
firefly Hh reporter signal, replicate 1: 92994; firefly Hh reporter signal, replicate 2: 78721; Renilla reference signal, replicate 1: 1987; Renilla reference signal, replicate 2: 5569; activity call: inactive

What is on record for nw [DRSC06749]?
firefly Hh reporter signal, replicate 1: 96582; firefly Hh reporter signal, replicate 2: 76794; Renilla reference signal, replicate 1: 4297; Renilla reference signal, replicate 2: 3281; activity call: inactive

What is on record for nw [DRSC06896]?
firefly Hh reporter signal, replicate 1: 66199; firefly Hh reporter signal, replicate 2: 40650; Renilla reference signal, replicate 1: 1640; Renilla reference signal, replicate 2: 3489; activity call: inactive

Which result is listed for Daxx [DRSC03255]?
firefly Hh reporter signal, replicate 1: 94867; firefly Hh reporter signal, replicate 2: 82890; Renilla reference signal, replicate 1: 4279; Renilla reference signal, replicate 2: 2788; activity call: inactive

What is on record for CG4610 [DRSC04477]?
firefly Hh reporter signal, replicate 1: 1.62e5; firefly Hh reporter signal, replicate 2: 96329; Renilla reference signal, replicate 1: 2579; Renilla reference signal, replicate 2: 8736; activity call: inactive

For CG14881 [DRSC15005], how do the results read?
firefly Hh reporter signal, replicate 1: 60951; firefly Hh reporter signal, replicate 2: 77517; Renilla reference signal, replicate 1: 1286; Renilla reference signal, replicate 2: 1605; activity call: inactive

For Ran [DRSC20364], what was measured?
firefly Hh reporter signal, replicate 1: 33573; firefly Hh reporter signal, replicate 2: 84800; Renilla reference signal, replicate 1: 824; Renilla reference signal, replicate 2: 4171; activity call: inactive

With dpr14 [DRSC17767], what was measured?
firefly Hh reporter signal, replicate 1: 96809; firefly Hh reporter signal, replicate 2: 97355; Renilla reference signal, replicate 1: 2209; Renilla reference signal, replicate 2: 2432; activity call: inactive

Ordered by “firefly Hh reporter signal, replicate 2” (low to high): some entries from above
nw [DRSC06451] → firefly Hh reporter signal, replicate 1: 92994; firefly Hh reporter signal, replicate 2: 78721; Renilla reference signal, replicate 1: 1987; Renilla reference signal, replicate 2: 5569; activity call: inactive
lncRNA:CR42735 (retired record) [DRSC00921] → firefly Hh reporter signal, replicate 1: 5.60e5; firefly Hh reporter signal, replicate 2: 1.64e5; Renilla reference signal, replicate 1: 27691; Renilla reference signal, replicate 2: 6676; activity call: inactive

The list goes on:
For CG1387 [DRSC17904], what does the deposit list?
firefly Hh reporter signal, replicate 1: 83410; firefly Hh reporter signal, replicate 2: 79715; Renilla reference signal, replicate 1: 2052; Renilla reference signal, replicate 2: 1684; activity call: inactive

With CG12479 [DRSC19459], what was measured?
firefly Hh reporter signal, replicate 1: 55909; firefly Hh reporter signal, replicate 2: 2.06e5; Renilla reference signal, replicate 1: 2102; Renilla reference signal, replicate 2: 10540; activity call: inactive

What did the screen give for dgrn [DRSC12154]?
firefly Hh reporter signal, replicate 1: 91461; firefly Hh reporter signal, replicate 2: 77381; Renilla reference signal, replicate 1: 3914; Renilla reference signal, replicate 2: 2896; activity call: inactive

How did the screen score Trissin [DRSC14994]?
firefly Hh reporter signal, replicate 1: 1.27e5; firefly Hh reporter signal, replicate 2: 1.27e5; Renilla reference signal, replicate 1: 3927; Renilla reference signal, replicate 2: 3634; activity call: inactive

Which result is listed for CG10336 [DRSC02037]?
firefly Hh reporter signal, replicate 1: 40688; firefly Hh reporter signal, replicate 2: 26121; Renilla reference signal, replicate 1: 1796; Renilla reference signal, replicate 2: 1072; activity call: inactive

For bgcn [DRSC04062], what does the deposit list?
firefly Hh reporter signal, replicate 1: 77771; firefly Hh reporter signal, replicate 2: 53916; Renilla reference signal, replicate 1: 1733; Renilla reference signal, replicate 2: 4634; activity call: inactive

For bgcn [DRSC04063], what does the deposit list?
firefly Hh reporter signal, replicate 1: 74163; firefly Hh reporter signal, replicate 2: 49901; Renilla reference signal, replicate 1: 1511; Renilla reference signal, replicate 2: 4109; activity call: inactive
